Results from patent US9247740B2, “Isoxazoline derivatives as insecticidal compounds” (Syngenta Participations AG, priority 2011, dated 2016).
Some entries share one result that the patent states for a list of compounds. At least one structure is not confirmed: it was looked up by name or label, or the drawing left a doubt.

Tests used:
Assay type in all cases: in vivo
[1] = test system: Plutella xylostella (Diamond Back Moth); test: Plutella xylostella larval test on artificial diet; conditions: 200 ppm (concentration in well 18 ppm), L2 larvae, larval mortality and growth regulation after 6 days
Description: (§1) This Example illustrates the insecticidal and acaricidal properties of compounds of formula (I).

[2] = test system: Diabrotica balteata (Corn Root Worm); test: Diabrotica balteata larval test on artificial diet; conditions: 200 ppm (concentration in well 18 ppm), L2 larvae, larval mortality and growth regulation after 5 days
Description: as §1

[3] = test system: Spodoptera littoralis (Egyptian Cotton Leafworm); test: Spodoptera littoralis leaf disc spray test; conditions: 200 ppm spray on cotton leaf discs; mortality, feeding behavior, growth regulation 3 days after treatment
Protocol: This Example illustrates the insecticidal and acaricidal properties of compounds of formula (I). Tests were performed as follows:

[4] = test system: Thrips tabaci (Onion Thrips); test: Thrips tabaci leaf disc spray test; conditions: 200 ppm spray on sunflower leaf discs, mixed ages; mortality after 7 days
Description: as §1

[5] = test system: Tetranychus urticae (Two-Spotted Spider Mite); test: Tetranychus urticae leaf disc spray test; conditions: 200 ppm spray on bean leaf discs, mixed ages; egg, larval and adult mortality 8 days later
Description: as §1

[6] = test system: Heliothis virescens (Tobacco Budworm); test: Heliothis virescens egg test on artificial diet; conditions: 200 ppm (concentration in well 18 ppm), eggs 0-24 h old on artificial diet; egg mortality, larval mortality, growth regulation after 4 days
Description: as §1

Cc1cc(C2=NOC(c3cc(Cl)cc(Cl)c3)(C(F)(F)F)C2)ccc1C(=O)NC1CS(=NC#N)C1 (racemic) [Compound A194]
at least 80%: control of Plutella xylostella [1] | control of Diabrotica balteata [2] | control of Spodoptera littoralis [3] | control of Thrips tabaci [4] | control of Tetranychus urticae [5] | control of Heliothis virescens [6]

Cc1cc(C2=NOC(c3cc(Cl)cc(Cl)c3)(C(F)(F)F)C2)ccc1C(=O)NC1CN(C(=O)OC(C)(C)C)C1 (racemic) [Compound A195]
at least 80%: control of Plutella xylostella [1] | control of Diabrotica balteata [2] | control of Spodoptera littoralis [3] | control of Thrips tabaci [4] | control of Tetranychus urticae [5]

Cc1cc(C2=NOC(c3cc(Cl)cc(Cl)c3)(C(F)(F)F)C2)ccc1C(=O)NC1CNC1 (racemic) [Compound A196]
at least 80%: control of Plutella xylostella [1] | control of Spodoptera littoralis [3] | control of Thrips tabaci [4] | control of Tetranychus urticae [5] | control of Heliothis virescens [6]

Cc1cc(C2=NOC(c3cc(Cl)cc(C#N)c3)(C(F)(F)F)C2)ccc1C(=O)NC1(C)CSC1 (centres unmarked) [Compound A083]
at least 80%: control of Plutella xylostella [1] | control of Spodoptera littoralis [3] | control of Thrips tabaci [4] | control of Tetranychus urticae [5] | control of Heliothis virescens [6]

Cc1cc(C2=NOC(c3cc(Cl)c(C#N)c(Cl)c3)(C(F)(F)F)C2)ccc1C(=O)NC1(C)CSC1 (centres unmarked) [Compound A127]
at least 80%: control of Plutella xylostella [1] | control of Diabrotica balteata [2] | control of Spodoptera littoralis [3] | control of Tetranychus urticae [5] | control of Heliothis virescens [6]

CSc1c(Cl)cc(C2(C(F)(F)F)CC(c3ccc(C(=O)NC4(C)CSC4)c(C)c3)=NO2)cc1Cl (centres unmarked) [Compound A143]
at least 80%: control of Plutella xylostella [1] | control of Diabrotica balteata [2] | control of Thrips tabaci [4] | control of Tetranychus urticae [5] | control of Heliothis virescens [6]

CSc1c(Cl)cc(C2(C(F)(F)F)CC(c3ccc(C(=O)NC4CSC4)c(C)c3)=NO2)cc1Cl (centres unmarked) [Compound A144]
at least 80%: control of Plutella xylostella [1] | control of Diabrotica balteata [2] | control of Thrips tabaci [4] | control of Tetranychus urticae [5] | control of Heliothis virescens [6]

CSc1c(Cl)cc(C2(C(F)(F)F)CC(c3ccc(C(=O)NC4C[S+]([O-])C4)c(C)c3)=NO2)cc1Cl (centres unmarked) [Compound A147]
at least 80%: control of Plutella xylostella [1] | control of Diabrotica balteata [2] | control of Thrips tabaci [4] | control of Tetranychus urticae [5] | control of Heliothis virescens [6]

Cc1cc(C2=NOC(c3cc(Cl)c(O)c(Cl)c3)(C(F)(F)F)C2)ccc1C(=O)NC1CS(=O)(=O)C1 (centres unmarked) [Compound A148]
at least 80%: control of Plutella xylostella [1] | control of Spodoptera littoralis [3] | control of Thrips tabaci [4] | control of Tetranychus urticae [5] | control of Heliothis virescens [6]

Cc1cc(C2=NOC(c3cc(Cl)c([S+](C)[O-])c(Cl)c3)(C(F)(F)F)C2)ccc1C(=O)NC1(C)CSC1 (centres unmarked) [Compound A150]
at least 80%: control of Plutella xylostella [1] | control of Diabrotica balteata [2]

Cc1ccc(S(=O)(=O)Oc2c(Cl)cc(C3(C(F)(F)F)CC(c4ccc(C(=O)NC5CS(=O)(=O)C5)c(C)c4)=NO3)cc2Cl)cc1 (centres unmarked) [Compound A163]
at least 80%: control of Plutella xylostella [1] | control of Spodoptera littoralis [3] | control of Thrips tabaci [4] | control of Tetranychus urticae [5] | control of Heliothis virescens [6]

Cc1cc(C2=NOC(c3cc(Cl)c(SCC(F)(F)F)c(Cl)c3)(C(F)(F)F)C2)ccc1C(=O)NC1(C)CSC1 (centres unmarked) [Compound A171]
at least 80%: control of Plutella xylostella [1] | control of Diabrotica balteata [2] | control of Thrips tabaci [4] | control of Tetranychus urticae [5] | control of Heliothis virescens [6]

Cc1cc(C2=NOC(c3cc(Cl)c(-c4cnco4)c(Cl)c3)(C(F)(F)F)C2)ccc1C(=O)NC1C[S+]([O-])C1 (centres unmarked) [Compound A185]
at least 80%: control of Plutella xylostella [1] | control of Spodoptera littoralis [3] | control of Thrips tabaci [4] | control of Tetranychus urticae [5] | control of Heliothis virescens [6]

C=Cc1c(Cl)cc(C2(C(F)(F)F)CC(c3ccc(C(=O)NC4C[S+]([O-])C4)c(C)c3)=NO2)cc1Cl (centres unmarked) [Compound A187]
at least 80%: control of Plutella xylostella [1] | control of Diabrotica balteata [2] | control of Thrips tabaci [4] | control of Tetranychus urticae [5] | control of Heliothis virescens [6]

Cc1cc(C2=NOC(c3cc(Cl)cc(Cl)c3)(C(F)(F)F)C2)ccc1C(=O)NC1CS(=O)(=Nc2ccccn2)C1 (centres unmarked) [Compound A204]
at least 80%: control of Plutella xylostella [1] | control of Diabrotica balteata [2] | control of Spodoptera littoralis [3] | control of Thrips tabaci [4] | control of Tetranychus urticae [5]

Cc1cc(C2=NOC(c3cc(Cl)cc(Cl)c3)(C(F)(F)F)C2)ccc1C(=O)NC1CN(C(=O)c2ccccc2)C1 (centres unmarked) [Compound A205]
at least 80%: control of Plutella xylostella [1] | control of Diabrotica balteata [2] | control of Spodoptera littoralis [3] | control of Tetranychus urticae [5]

Cc1cc(C2=NOC(c3cc(Cl)cc(Cl)c3)(C(F)(F)F)C2)ccc1C(=O)NC(Cc1ccccc1)C(=O)NC1CS(=O)(=O)C1 (centres unmarked) [Compound A212]
at least 80%: control of Plutella xylostella [1] | control of Diabrotica balteata [2] | control of Spodoptera littoralis [3] | control of Heliothis virescens [6]

Cc1cc(C2=NOC(c3cc(Cl)cc(Cl)c3)(C(F)(F)F)C2)ccc1C(=O)NC(Cc1ccccc1)C(=O)NC1C[S+]([O-])C1 (centres unmarked) [Compound A214]
at least 80%: control of Plutella xylostella [1] | control of Diabrotica balteata [2] | control of Spodoptera littoralis [3] | control of Tetranychus urticae [5] | control of Heliothis virescens [6]

CC1(NC(=O)c2cnc(C3=NOC(c4cc(Cl)cc(Cl)c4)(C(F)(F)F)C3)nc2C(F)(F)F)CSC1 (centres unmarked) [Compound B01]
at least 80%: control of Plutella xylostella [1] | control of Diabrotica balteata [2] | control of Tetranychus urticae [5]

O=C(NC1CSC1)c1cnc(C2=NOC(c3cc(Cl)cc(Cl)c3)(C(F)(F)F)C2)nc1C(F)(F)F (centres unmarked) [Compound B02]
at least 80%: control of Plutella xylostella [1] | control of Diabrotica balteata [2] | control of Thrips tabaci [4] | control of Tetranychus urticae [5]

Cc1cc(C2=NOC(c3cc(Cl)cc(Cl)c3)(C(F)(F)F)C2)cc(C)c1C(=O)NC1(C)CSC1 (centres unmarked) [Compound B18]
at least 80%: control of Plutella xylostella [1] | control of Diabrotica balteata [2] | control of Spodoptera littoralis [3] | control of Tetranychus urticae [5] | control of Heliothis virescens [6]

O=C(NC1CSC1)c1ccc(C2=NOC(c3cc(Cl)cc(Cl)c3)(C(F)(F)F)C2)cn1 (centres unmarked) [Compound B42]
at least 80%: control of Plutella xylostella [1] | control of Diabrotica balteata [2] | control of Spodoptera littoralis [3] | control of Thrips tabaci [4] | control of Heliothis virescens [6]

Cc1nc(C2=NOC(c3cc(Cl)cc(Cl)c3)(C(F)(F)F)C2)ccc1C(=O)NC1CS(=O)(=O)C1 (centres unmarked) [Compound B47]
at least 80%: control of Plutella xylostella [1] | control of Spodoptera littoralis [3] | control of Thrips tabaci [4] | control of Tetranychus urticae [5] | control of Heliothis virescens [6]

Cc1nc(C2=NOC(c3cc(Cl)cc(Cl)c3)(C(F)(F)F)C2)ccc1C(=O)NC1CSC1 (centres unmarked) [Compound B49]
at least 80%: control of Plutella xylostella [1] | control of Diabrotica balteata [2] | control of Spodoptera littoralis [3] | control of Thrips tabaci [4] | control of Heliothis virescens [6]

Cc1nc(C2=NOC(c3cc(Cl)cc(Cl)c3)(C(F)(F)F)C2)ccc1C(=O)NC1C[S+]([O-])C1 (centres unmarked) [Compound B51]
at least 80%: control of Plutella xylostella [1] | control of Spodoptera littoralis [3] | control of Thrips tabaci [4] | control of Tetranychus urticae [5] | control of Heliothis virescens [6]

O=C(NC1C[S+]([O-])C1)c1ccc(C2=NOC(c3cc(Cl)cc(Cl)c3)(C(F)(F)F)C2)cc1 (centres unmarked) [Compound B62]
at least 80%: control of Plutella xylostella [1] | control of Spodoptera littoralis [3] | control of Thrips tabaci [4] | control of Tetranychus urticae [5] | control of Heliothis virescens [6]

CC(=O)OCc1cc(C2=NOC(c3cc(Cl)cc(Cl)c3)(C(F)(F)F)C2)ccc1C(=O)NC1CS(=O)(=O)C1 (centres unmarked) [Compound B67]
at least 80%: control of Plutella xylostella [1] | control of Diabrotica balteata [2] | control of Spodoptera littoralis [3] | control of Tetranychus urticae [5] | control of Heliothis virescens [6]
